About 3,700 (7%) of roughly 53,000 sequences were called active.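 Rule for the calls: active = gene knockdowns whose robust z-score for IL-1 alpha signal is at least 2 or at most -2, so actives lie on both sides; inactive = the rest.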 This is one part of the list.
Assay: Components of the Cytosolic LPS Sensing Pathway: Gene Identification via Genome-wide siRNA Screen;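 note: robust z of the log signal after scaling to non-targeting control siRNA wells of the plate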
Settings: RAW264.7 macrophages, IL-1a HTRF, actives lie on both sides, screened at 100 nM (by protocol), cells primed 5 h with Pam3CSK4 first
Procedure, shortened: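 IL-1a HTRF of supernatants after 24 hour LipidA transfection of Pam3CSK4-primed (5 hours) RAW264.7 cells, 48h post-siRNA transfection (100 nM). Scores: percent of plate negative-control median, then log-based robust z-score.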

z-score, inactive:
GCUCUAUAAGCUAUCAGGGTT against Ntn1 0.279
CCAUCGGCGACUUGAAGAATT against Ubl5 -0.876
GGCAUUUGCCAAGAAAAAUTT against Lpgat1 -1.54
GGAAAUGAAGAGUGUUGAATT against Slc7a3 -0.4
GCGUGUAAGGUCUUCAUCUTT against Ranbp3l 0.633
GGACCACCUAAGUUUAAGCTT against Pde6g -0.557
GGAAGAAUUUCUUGAGACATT against Gsta4 0.102
GGUAGUGAGCAUUGAGAAGTT against Tbc1d8 -0.997
GGAGUGAAUAUUGAAAAUCTT against Ctag2 0.234
GCGAAUUGCAUUCCUGUUUTT against Fam91a1 0.809
GGCAAAAGAACAAAGAAAATT against Mrps5 0.683
GGCUCUUAAUUGCUGAGUUTT against Acadl 0.312
CCUGUCCAAUCAUCACAAGTT against Apol7a -1.44
GCGAGACAAUUGUUAUUGATT against Zmym2 -1.05
CCGUAGUAUCCACUGAUUGTT against Olfr1322 -0.34
GGGAUGAUCUUAUAUGCUUTT against AA792892 1.42
GGGCAUCGCUUUGAGAGUATT against Srprb -0.00327
GGUUUUUAGCCUGAGUGAGTT against Olfr688 -1.8
GGCUCUGUGCUUAAGAUGATT against Oaf 0.113
GCGUCUUAUAUGGGUGGCUTT against Olfr1016 0.43
GGGAUCCCACCUGAAAAAATT against Poc1a -0.162
GGAAGUUGUGGAAGAAGACTT against Syf2 0.856
GGAUUGGAACUAUUCUGUATT against Syvn1 0.839
GGGAAAUCUAUGGUGCUGUTT against Mpz -0.665
CCAACGACAUGUACGACCUTT against Rest -0.54
GGAUUUAAGAAUGAAUGCCTT against Kcnip4 -0.579
GGAUAUGAUGUCAAACCCUTT against Ubqln4 -1.77
GGACUCAGACAAGAUCUGCTT against Ctdsp1 -1.38
GCAAACGUACCAUCUACACTT against Uckl1 1.99
GCUAUGACCAACCUAGAGATT against Sox5 -0.401

Two records drawn at random from the list so far, as already listed:
z-score, inactive:
GGAAGAAUUUCUUGAGACATT against Gsta4 0.102
GCGUCUUAUAUGGGUGGCUTT against Olfr1016 0.43
